Data reported in PubChem BioAssay (EPA / NIEHS).
“And” between values parts separate entries of the source, which are not always exact repeats. Equal values may be shown once. Inconclusive means that the source gave no clear call. Such entries were picked first, then a sample of the others. Where the call is inconclusive, the potency comes from a doubtful curve fit. Where a structure was tested more than once in an assay, its records may differ in their call. The source made the active and inactive calls. How the source made its calls: active means hit-call score of the fitted dose curve at least 0.9, where 1 is the maximum; inconclusive means response in the unintended direction; inactive means score below 0.9.

Amino acid sequences for entries named in this document (tags omitted).
UniProt P19785, whole entry, looked up: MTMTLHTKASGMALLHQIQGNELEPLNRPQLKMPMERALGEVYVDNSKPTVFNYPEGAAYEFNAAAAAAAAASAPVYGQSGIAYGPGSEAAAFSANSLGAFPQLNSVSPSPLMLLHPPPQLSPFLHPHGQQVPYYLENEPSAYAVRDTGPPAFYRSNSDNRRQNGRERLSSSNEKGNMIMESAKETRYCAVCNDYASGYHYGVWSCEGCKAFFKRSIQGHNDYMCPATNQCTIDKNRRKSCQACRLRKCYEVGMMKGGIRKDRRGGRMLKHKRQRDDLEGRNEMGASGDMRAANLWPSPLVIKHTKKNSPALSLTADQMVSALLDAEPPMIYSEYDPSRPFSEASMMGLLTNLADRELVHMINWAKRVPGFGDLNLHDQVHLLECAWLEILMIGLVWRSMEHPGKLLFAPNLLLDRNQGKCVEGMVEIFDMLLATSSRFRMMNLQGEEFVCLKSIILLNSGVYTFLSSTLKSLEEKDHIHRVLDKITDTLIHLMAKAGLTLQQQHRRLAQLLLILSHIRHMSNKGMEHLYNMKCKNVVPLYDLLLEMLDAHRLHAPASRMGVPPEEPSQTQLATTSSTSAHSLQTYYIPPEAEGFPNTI

target: mouse Estrogen Receptor alpha (Era), Esr1 (gene 13982) (UniProt P19785); assay: NVS_NR_mERa: NovaScreen (NVS) Nuclear Receptor Binding Assay for mouse Estrogen Receptor alpha (Era) (AID 2283378);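 further: hit means loss of bound radioligand signal relative to DMSO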
Method in brief: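 Cell-free radioligand competitive displacement binding, read by filter-based scintillation counting 18 h after dosing. Primary screen run in duplicate at 25 uM, actives retested in concentration series; loss of signal versus DMSO.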

**Q.** Which outcome does the source give for CC(C)(c1ccccc1)c1ccc(O)c(C(C)(C)c2ccccc2)c1 here?
**A.** inactive

**Q.** For CC(c1ccc(O)cc1)(c1ccc(O)cc1)c1ccc(O)cc1, which AC50 is on record?
**A.** active: 0.768 µM

**Q.** CCN1CCC2(CC1)COc1cc3c(cc12)N(C(=O)c1ccc(-c2ccc(-c4nnc(C)o4)cc2C)cc1)CC3 was tested. Which AC50 did it give?
**A.** active: 0.174 µM

**Q.** O=S1OC[C@@H]2[C@H](CO1)[C@]1(Cl)C(Cl)=C(Cl)[C@@]2(Cl)C1(Cl)Cl (stereo not given in full) was tested. Which outcome did it give?
**A.** inactive

**Q.** With CCCN(CCC)c1c([N+](=O)[O-])cc(S(C)(=O)=O)cc1[N+](=O)[O-] as the compound, how does the AC50 read?
**A.** inconclusive: 1.22 µM

**Q.** Which AC50 does the source give for CCCN(CCC)c1c([N+](=O)[O-])cc(S(N)(=O)=O)cc1[N+](=O)[O-] here?
**A.** inconclusive: 0.403 µM

**Q.** With NS(=O)(=O)C(F)(F)C(F)(F)C(F)(F)C(F)(F)C(F)(F)C(F)(F)C(F)(F)C(F)(F)F as the compound, how does the outcome read?
**A.** inactive

**Q.** For Nc1c(Cl)cc([N+](=O)[O-])cc1Cl, which AC50 is on record?
**A.** inconclusive: 43.4 µM

**Q.** Which AC50 does the source give for CC(C)N1C(=O)N(c2ccccc2)CSC1=NC(C)(C)C here?
**A.** inconclusive: 25 µM

**Q.** CCCCCCCCn1sccc1=O was tested. Which outcome did it give?
**A.** inactive

**Q.** How did the AC50 turn out when CC1(C)CN=C(NN=C(/C=C/c2ccc(C(F)(F)F)cc2)/C=C/c2ccc(C(F)(F)F)cc2)NC1 was run?
**A.** inconclusive: 25 µM

**Q.** How did the AC50 turn out when CSC(C)(C)C=NO was run?
**A.** inconclusive: 0.477 µM

**Q.** For COc1nn(CSP(=S)(OC)OC)c(=O)s1, which AC50 is on record?
**A.** inconclusive: 5.51 µM

**Q.** How did the AC50 turn out when C[C@]12CCC(=O)C=C1CC[C@@H]1[C@@H]2CC[C@@]2(C)[C@H]1CC[C@]2(C)O was run?
**A.** inconclusive: 22.9 µM

**Q.** What about the outcome of the same compound?
**A.** inactive

**Q.** Which outcome does the source give for CCC[CH2][Sn]([CH2]CCC)([CH2]CCC)[O]C(=O)c1ccccc1 here?
**A.** inactive

**Q.** Nc1ccc(Sc2ccc(N)cc2)cc1 was tested. Which AC50 did it give?
**A.** inconclusive: 0.766 µM

**Q.** CC(C)(O)C(=O)Nc1ccc([N+](=O)[O-])c(C(F)(F)F)c1 was tested. Which AC50 did it give?
**A.** active: 2.7 µM and inconclusive: 4.65 µM

**Q.** And the outcome?
**A.** inactive

**Q.** With CCCCOC(=O)c1ccccc1C(=O)OCCCC as the compound, how does the AC50 read?
**A.** inconclusive: 25 µM and active: 25 µM

**Q.** And the outcome?
**A.** inactive

**Q.** How did the AC50 turn out when O=C(Cc1ccccc1)c1ccccc1 was run?
**A.** inconclusive: 6.72 µM

**Q.** With CNC(=O)Oc1cccc2c1OC(C)(C)O2 as the compound, how does the AC50 read?
**A.** inconclusive: 25 µM

**Q.** How did the AC50 turn out when Cc1cc(Cl)ccc1OCC(=O)O was run?
**A.** inconclusive: 25 µM

**Q.** CCCCCCCCCC[N+](C)(C)CCCCCCCCCC was tested. Which AC50 did it give?
**A.** active: 5.55 µM
